These results are taken from the supplement of paper PMC12067093, “Discovery and optimisation of a covalent ligand for TRIM25 and its application to targeted protein ubiquitination” (Chemical Science, 2025).

By UniProt entry, the sequences of proteins in these tests, tags left out. Where a name states a change or a piece, a line headed by the entry shows the natural chain unless it says otherwise.
UniProt Q8ND25: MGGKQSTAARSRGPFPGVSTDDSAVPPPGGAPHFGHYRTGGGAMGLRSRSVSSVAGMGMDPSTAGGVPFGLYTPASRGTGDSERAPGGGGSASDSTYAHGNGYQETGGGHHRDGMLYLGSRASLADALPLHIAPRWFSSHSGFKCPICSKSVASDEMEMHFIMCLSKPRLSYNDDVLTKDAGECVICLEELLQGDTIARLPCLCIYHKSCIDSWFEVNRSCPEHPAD
UniProt O95218: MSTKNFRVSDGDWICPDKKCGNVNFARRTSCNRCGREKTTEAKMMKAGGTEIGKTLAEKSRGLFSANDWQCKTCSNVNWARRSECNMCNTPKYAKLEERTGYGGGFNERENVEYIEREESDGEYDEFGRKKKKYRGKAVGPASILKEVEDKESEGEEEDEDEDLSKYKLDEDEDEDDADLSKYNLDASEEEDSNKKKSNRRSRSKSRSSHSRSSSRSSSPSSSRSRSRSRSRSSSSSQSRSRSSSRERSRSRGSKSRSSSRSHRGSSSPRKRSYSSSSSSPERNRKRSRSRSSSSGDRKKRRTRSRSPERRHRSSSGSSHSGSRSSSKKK
UniProt P17098: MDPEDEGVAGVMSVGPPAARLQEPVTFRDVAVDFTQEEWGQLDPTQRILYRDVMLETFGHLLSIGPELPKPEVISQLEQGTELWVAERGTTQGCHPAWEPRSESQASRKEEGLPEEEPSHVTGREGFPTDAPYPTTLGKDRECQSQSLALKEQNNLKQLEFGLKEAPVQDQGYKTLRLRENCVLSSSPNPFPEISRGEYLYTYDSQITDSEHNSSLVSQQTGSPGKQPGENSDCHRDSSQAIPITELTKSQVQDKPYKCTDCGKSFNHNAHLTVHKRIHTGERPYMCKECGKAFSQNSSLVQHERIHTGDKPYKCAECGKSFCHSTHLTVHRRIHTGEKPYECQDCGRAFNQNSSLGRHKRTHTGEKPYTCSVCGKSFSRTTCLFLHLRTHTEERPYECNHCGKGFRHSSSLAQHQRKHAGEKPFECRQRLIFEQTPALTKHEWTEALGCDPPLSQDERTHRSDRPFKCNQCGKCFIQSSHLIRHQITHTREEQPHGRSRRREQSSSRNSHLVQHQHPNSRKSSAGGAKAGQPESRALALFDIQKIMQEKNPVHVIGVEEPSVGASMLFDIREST
UniProt O75312: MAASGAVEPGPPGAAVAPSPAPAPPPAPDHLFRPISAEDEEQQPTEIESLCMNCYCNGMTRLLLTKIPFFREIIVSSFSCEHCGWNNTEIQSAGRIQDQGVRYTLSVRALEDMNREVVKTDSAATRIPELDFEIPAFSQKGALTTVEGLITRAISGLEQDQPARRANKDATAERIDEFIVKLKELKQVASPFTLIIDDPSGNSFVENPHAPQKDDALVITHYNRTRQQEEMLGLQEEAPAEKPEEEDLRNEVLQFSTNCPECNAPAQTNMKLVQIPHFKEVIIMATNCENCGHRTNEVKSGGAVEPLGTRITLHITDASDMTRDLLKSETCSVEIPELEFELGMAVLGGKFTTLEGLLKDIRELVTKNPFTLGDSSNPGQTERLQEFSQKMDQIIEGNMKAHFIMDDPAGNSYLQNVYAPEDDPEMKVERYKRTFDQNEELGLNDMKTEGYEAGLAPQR
UniProt Q15942: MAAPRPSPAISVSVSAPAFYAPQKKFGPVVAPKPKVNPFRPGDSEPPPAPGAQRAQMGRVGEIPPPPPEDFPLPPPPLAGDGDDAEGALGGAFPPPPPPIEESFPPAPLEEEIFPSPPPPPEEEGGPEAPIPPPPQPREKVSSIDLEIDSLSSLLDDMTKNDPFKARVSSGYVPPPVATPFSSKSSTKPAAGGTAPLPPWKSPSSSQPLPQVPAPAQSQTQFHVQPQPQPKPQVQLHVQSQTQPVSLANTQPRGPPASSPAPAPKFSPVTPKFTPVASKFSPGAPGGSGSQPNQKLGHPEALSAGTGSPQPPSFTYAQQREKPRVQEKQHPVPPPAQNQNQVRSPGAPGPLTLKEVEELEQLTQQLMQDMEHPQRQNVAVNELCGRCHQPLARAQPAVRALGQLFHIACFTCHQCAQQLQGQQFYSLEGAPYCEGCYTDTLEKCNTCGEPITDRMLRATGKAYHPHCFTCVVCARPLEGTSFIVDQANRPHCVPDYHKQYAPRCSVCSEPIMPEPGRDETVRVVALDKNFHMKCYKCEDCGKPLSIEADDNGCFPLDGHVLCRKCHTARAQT
UniProt Q9NWK9: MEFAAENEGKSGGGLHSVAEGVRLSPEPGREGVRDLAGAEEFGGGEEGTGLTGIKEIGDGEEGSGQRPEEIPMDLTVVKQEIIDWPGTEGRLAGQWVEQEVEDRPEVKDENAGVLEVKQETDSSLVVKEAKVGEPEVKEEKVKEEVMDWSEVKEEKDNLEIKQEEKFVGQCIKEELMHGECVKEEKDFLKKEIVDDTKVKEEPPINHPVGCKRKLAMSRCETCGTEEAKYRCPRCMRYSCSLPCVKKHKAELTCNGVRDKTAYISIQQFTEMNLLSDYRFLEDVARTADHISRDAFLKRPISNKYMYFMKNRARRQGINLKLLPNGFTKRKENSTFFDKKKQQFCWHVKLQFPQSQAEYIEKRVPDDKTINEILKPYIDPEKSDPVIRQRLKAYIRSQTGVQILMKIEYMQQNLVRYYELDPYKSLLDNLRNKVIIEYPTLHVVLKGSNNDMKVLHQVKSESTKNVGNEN
UniProt Q6DD87: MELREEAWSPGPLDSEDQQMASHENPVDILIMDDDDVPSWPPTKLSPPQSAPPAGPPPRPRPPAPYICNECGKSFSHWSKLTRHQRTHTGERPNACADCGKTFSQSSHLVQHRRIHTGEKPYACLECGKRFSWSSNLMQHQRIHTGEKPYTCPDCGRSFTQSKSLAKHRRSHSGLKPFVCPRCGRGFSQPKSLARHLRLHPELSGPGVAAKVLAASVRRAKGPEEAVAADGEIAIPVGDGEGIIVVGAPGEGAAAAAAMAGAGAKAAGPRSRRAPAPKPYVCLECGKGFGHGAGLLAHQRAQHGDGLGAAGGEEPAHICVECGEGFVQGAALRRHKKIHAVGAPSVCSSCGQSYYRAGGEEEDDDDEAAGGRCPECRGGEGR
UniProt Q9UHR6: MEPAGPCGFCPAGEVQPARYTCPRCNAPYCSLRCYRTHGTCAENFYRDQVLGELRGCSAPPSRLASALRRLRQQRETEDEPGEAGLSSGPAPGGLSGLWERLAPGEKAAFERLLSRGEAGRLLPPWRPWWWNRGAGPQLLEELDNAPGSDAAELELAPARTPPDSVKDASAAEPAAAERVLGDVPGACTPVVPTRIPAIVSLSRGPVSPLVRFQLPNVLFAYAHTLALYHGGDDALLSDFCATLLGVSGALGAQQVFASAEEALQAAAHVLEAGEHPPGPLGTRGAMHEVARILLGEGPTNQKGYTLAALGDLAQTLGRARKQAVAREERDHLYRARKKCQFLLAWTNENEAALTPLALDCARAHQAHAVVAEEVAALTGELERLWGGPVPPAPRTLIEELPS
UniProt O43264: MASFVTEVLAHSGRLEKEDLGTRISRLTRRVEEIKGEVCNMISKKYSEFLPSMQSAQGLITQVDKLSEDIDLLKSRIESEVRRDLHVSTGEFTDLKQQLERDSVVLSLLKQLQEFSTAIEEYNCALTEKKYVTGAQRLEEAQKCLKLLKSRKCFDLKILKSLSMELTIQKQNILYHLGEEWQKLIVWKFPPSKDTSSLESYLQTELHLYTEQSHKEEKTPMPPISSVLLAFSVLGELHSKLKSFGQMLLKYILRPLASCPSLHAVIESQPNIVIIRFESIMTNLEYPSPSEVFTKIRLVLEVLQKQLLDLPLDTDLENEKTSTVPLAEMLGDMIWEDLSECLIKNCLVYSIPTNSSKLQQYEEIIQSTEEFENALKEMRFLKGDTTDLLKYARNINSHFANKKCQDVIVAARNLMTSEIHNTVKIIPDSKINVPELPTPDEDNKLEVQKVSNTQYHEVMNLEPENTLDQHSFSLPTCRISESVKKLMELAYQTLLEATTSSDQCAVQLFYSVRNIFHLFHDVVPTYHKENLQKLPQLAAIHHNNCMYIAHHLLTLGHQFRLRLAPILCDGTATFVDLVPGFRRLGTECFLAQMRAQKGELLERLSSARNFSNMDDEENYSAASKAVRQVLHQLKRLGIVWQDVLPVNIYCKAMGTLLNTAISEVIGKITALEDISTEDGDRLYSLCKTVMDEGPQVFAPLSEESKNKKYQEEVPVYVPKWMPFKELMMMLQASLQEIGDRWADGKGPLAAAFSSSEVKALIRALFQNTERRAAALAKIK
UniProt Q2TB10: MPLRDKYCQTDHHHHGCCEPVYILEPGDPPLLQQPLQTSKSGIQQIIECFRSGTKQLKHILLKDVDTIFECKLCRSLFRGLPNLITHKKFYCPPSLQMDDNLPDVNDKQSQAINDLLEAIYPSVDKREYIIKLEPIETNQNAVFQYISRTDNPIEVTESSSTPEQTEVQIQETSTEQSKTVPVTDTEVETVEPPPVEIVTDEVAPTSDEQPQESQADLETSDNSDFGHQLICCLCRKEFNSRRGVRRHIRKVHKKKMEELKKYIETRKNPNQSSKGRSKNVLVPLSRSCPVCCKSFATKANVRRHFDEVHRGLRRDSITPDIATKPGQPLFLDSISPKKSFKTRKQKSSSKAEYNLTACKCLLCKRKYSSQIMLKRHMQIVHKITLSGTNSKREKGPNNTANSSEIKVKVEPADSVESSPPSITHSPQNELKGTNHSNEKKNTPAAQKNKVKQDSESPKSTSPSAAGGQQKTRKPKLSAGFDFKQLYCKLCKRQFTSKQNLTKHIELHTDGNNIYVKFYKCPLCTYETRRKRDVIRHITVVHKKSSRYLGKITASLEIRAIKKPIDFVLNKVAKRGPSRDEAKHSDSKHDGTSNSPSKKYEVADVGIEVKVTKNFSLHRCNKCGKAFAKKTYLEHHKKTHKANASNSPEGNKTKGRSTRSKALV
UniProt Q15649: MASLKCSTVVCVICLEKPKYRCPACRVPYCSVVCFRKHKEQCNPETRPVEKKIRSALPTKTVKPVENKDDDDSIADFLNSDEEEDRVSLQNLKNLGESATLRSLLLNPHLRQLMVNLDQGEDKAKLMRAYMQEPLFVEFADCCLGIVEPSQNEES
UniProt Q9P1U0, whole entry, looked up: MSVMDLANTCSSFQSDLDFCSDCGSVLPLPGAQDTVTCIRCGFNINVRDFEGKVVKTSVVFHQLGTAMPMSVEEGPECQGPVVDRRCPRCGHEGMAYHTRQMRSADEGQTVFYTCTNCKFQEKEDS
UniProt Q9BR61: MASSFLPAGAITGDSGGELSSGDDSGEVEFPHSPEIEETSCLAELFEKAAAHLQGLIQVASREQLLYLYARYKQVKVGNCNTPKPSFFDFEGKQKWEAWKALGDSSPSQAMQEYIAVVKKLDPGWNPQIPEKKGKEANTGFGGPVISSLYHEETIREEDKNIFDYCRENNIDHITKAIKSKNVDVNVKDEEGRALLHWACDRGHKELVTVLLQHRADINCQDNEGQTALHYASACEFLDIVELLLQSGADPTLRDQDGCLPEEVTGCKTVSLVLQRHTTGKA
UniProt Q9H3P7: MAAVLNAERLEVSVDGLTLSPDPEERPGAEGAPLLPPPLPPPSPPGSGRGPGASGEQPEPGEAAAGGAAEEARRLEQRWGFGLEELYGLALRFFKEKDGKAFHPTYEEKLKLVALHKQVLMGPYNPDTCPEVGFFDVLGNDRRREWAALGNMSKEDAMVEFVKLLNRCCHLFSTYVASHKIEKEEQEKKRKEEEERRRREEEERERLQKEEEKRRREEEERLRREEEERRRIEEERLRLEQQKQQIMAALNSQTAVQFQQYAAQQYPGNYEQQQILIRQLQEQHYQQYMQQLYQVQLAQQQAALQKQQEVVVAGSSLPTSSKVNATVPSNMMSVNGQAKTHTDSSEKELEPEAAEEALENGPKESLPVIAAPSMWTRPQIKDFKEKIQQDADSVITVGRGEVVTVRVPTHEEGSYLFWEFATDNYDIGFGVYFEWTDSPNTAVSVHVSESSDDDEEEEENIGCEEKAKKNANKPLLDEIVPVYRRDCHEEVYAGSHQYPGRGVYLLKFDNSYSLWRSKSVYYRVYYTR
UniProt Q9UG63: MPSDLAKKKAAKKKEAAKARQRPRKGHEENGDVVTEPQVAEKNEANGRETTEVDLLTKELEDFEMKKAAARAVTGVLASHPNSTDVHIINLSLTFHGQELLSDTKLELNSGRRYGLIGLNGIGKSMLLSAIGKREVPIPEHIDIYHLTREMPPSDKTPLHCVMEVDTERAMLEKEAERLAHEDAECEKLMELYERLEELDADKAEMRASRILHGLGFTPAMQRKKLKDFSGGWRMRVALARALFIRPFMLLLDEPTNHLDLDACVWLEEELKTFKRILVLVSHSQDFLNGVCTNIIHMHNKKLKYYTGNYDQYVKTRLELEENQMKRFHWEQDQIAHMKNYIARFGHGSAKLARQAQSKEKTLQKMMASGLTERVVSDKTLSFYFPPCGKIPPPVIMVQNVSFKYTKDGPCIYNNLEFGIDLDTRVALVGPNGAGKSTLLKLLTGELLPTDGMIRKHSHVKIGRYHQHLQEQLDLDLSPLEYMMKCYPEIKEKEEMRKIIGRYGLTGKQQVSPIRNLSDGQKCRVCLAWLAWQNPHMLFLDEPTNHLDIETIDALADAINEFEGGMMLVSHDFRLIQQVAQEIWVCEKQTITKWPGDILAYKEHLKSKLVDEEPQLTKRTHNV

The other results are listed elsewhere or left out.

Compound in the first assay: Cc1cc(ccc1-c1ccccc1)C(=O)N1CCCN(CC1)C(=O)CCl [compound 10]
Description: probe-labelled cysteine peptide fold change vs DMSO (competition) (log2 fold change); higher = less target engagement (more negative = stronger competition). The conditions noted are these: 10 µM; THP-1; incubation time: 4 h.
For “ZNRF1_Q8ND25_202_LPCLCIYHK (UniProt Q8ND25)”, the “probe-labelled cysteine peptide fold change” value was -0.0357.
In the case of “ZNF784_Q8NCA9_301_THFHGPGPGLGDSGGQLGSSAAEGSGSGCGVGDPAEEGRGETAK (UniProt Q8NCA9)”, the “probe-labelled cysteine peptide fold change” value is -0.246.
Take “ZRANB2_O95218_31_RTSCNR (UniProt O95218)”: the “probe-labelled cysteine peptide fold change” value came to 0.0472.
Take “ZRANB2_O95218_20_KCGNVNFAR (UniProt O95218)”: the “probe-labelled cysteine peptide fold change” value is -0.121.
Turning to “ZNF8_P17098_450_HEWTEALGCDPPLSQDER (UniProt P17098)”, the “probe-labelled cysteine peptide fold change” value is 0.0836.
As to “ZPR1_O75312_288_EVIIMATNCENCGHR (UniProt O75312)”, the “probe-labelled cysteine peptide fold change” value came out at 0.0539.
On to “ZYX_Q15942_467_AYHPHCFTCVVCAR (UniProt Q15942)”, for which the “probe-labelled cysteine peptide fold change” value turned out to be 0.229.
For “ZYX_Q15942_447_CNTCGEPITDR (UniProt Q15942)”, the “probe-labelled cysteine peptide fold change” value is -0.171.
“ZYX_Q15942_540+562_CEDCGKPLSIEADDNGCFPLDGHVLCR (UniProt Q15942)”: the “probe-labelled cysteine peptide fold change” value amounted to 0.0401.
As for “ZNHIT6_Q9NWK9_244_YSCSLPCVK (UniProt Q9NWK9)”, the “probe-labelled cysteine peptide fold change” value is -0.179.
Turning to “ZNF787_Q6DD87_180_SHSGLKPFVCPR (UniProt Q6DD87)”, the “probe-labelled cysteine peptide fold change” value was -0.0348.
On to “ZYX_Q15942_507_CSVCSEPIMPEPGRDETVR (UniProt Q15942)”, for which the “probe-labelled cysteine peptide fold change” value worked out at 0.027.
In the case of “ZNHIT2_Q9UHR6_361_CQFLLAWTNENEAALTPLALDCAR (UniProt Q9UHR6)”, the “probe-labelled cysteine peptide fold change” value is -0.0201.
Regarding “ZYX_Q15942_444_CNTCGEPITDR (UniProt Q15942)”, the “probe-labelled cysteine peptide fold change” value came to 0.132.
In the case of “ZW10_O43264_588_RLGTECFLAQMR (UniProt O43264)”, the “probe-labelled cysteine peptide fold change” value stood at 0.00573.
In the case of “ZNF800_Q2TB10_49_SGIQQIIECFR (UniProt Q2TB10)”, the “probe-labelled cysteine peptide fold change” value was -0.0885.
With “ZNHIT3_Q15649_42_EQCNPETRPVEK (UniProt Q15649)”, the “probe-labelled cysteine peptide fold change” value is -0.0866.
For “ZW10_O43264_650_LGIVWQDVLPVNIYCK (UniProt O43264)”, the “probe-labelled cysteine peptide fold change” value worked out at 0.139.
Turning to “ZNRD1_Q9P1U0_90_CGHEGMAYHTR (UniProt Q9P1U0)”, the “probe-labelled cysteine peptide fold change” value is -0.182.

The assay is the same for the next values; noted with them: 50 µM; THP-1; incubation time: 4 h.
With “ZNRF1_Q8ND25_202_LPCLCIYHK (UniProt Q8ND25)”, the “probe-labelled cysteine peptide fold change” value was -0.0614.
As for “ZNF784_Q8NCA9_301_THFHGPGPGLGDSGGQLGSSAAEGSGSGCGVGDPAEEGRGETAK (UniProt Q8NCA9)”, the “probe-labelled cysteine peptide fold change” value is -0.494.
For “ZRANB2_O95218_31_RTSCNR (UniProt O95218)”, the “probe-labelled cysteine peptide fold change” value is -0.373.
For “ZRANB2_O95218_20_KCGNVNFAR (UniProt O95218)”, the “probe-labelled cysteine peptide fold change” value was -0.457.
Take “ZNF8_P17098_450_HEWTEALGCDPPLSQDER (UniProt P17098)”: the “probe-labelled cysteine peptide fold change” value is 0.0462.
As for “ZPR1_O75312_288_EVIIMATNCENCGHR (UniProt O75312)”, the “probe-labelled cysteine peptide fold change” value was 0.038.
Consider “ZYX_Q15942_467_AYHPHCFTCVVCAR (UniProt Q15942)”, for which the “probe-labelled cysteine peptide fold change” value was 0.194.
With “ZYX_Q15942_447_CNTCGEPITDR (UniProt Q15942)”, the “probe-labelled cysteine peptide fold change” value came out at 0.173.
On the same count and under the same terms, in the case of “ZYX_Q15942_540+562_CEDCGKPLSIEADDNGCFPLDGHVLCR (UniProt Q15942)” it was -0.199; in that of “ZNHIT6_Q9NWK9_244_YSCSLPCVK (UniProt Q9NWK9)”, -0.392.
In the case of “ZNF787_Q6DD87_180_SHSGLKPFVCPR (UniProt Q6DD87)”, the “probe-labelled cysteine peptide fold change” value was found to be 0.176.
For “ZYX_Q15942_507_CSVCSEPIMPEPGRDETVR (UniProt Q15942)”, the “probe-labelled cysteine peptide fold change” value was -0.205.
For the target “ZNHIT2_Q9UHR6_361_CQFLLAWTNENEAALTPLALDCAR (UniProt Q9UHR6)”, the “probe-labelled cysteine peptide fold change” value was -0.271.
Consider “ZYX_Q15942_444_CNTCGEPITDR (UniProt Q15942)”, for which the “probe-labelled cysteine peptide fold change” value amounted to 0.248.
On the same count and under the same terms, the result for “ZW10_O43264_588_RLGTECFLAQMR (UniProt O43264)” reads -0.0952; that for “ZNF800_Q2TB10_49_SGIQQIIECFR (UniProt Q2TB10)”, 0.0381.
Consider “ZNHIT3_Q15649_42_EQCNPETRPVEK (UniProt Q15649)”, for which the “probe-labelled cysteine peptide fold change” value is -0.343.
For “ZW10_O43264_650_LGIVWQDVLPVNIYCK (UniProt O43264)”, the “probe-labelled cysteine peptide fold change” value was 0.206.
As to “ZNRD1_Q9P1U0_90_CGHEGMAYHTR (UniProt Q9P1U0)”, the “probe-labelled cysteine peptide fold change” value was -0.412.

Compound in the next assay: CC1Cc2ccccc2N1C(=O)C1CCCN(C1)C(=O)CCl (mixture of isomers) [TRIM25 ligand 11 (diastereomer mixture)]
The description is as above. The conditions noted are these: 10 µM; THP-1; incubation time: 4 h.
On to “AAK1_Q2M2I8_193_GHYVLCDFGSATNK (UniProt Q2M2I8)”, for which the “probe-labelled cysteine peptide fold change” value worked out at 0.0518.
As to “ACBD6_Q9BR61_200_ALLHWACDR (UniProt Q9BR61)”, the “probe-labelled cysteine peptide fold change” value was -0.00153.
“AARS_P49588_723_VVSIGVPVSELLDDPSGPAGSLTSVEFCGGTHLR (UniProt P49588)”: the “probe-labelled cysteine peptide fold change” value is -0.104.
For “ACBD3_Q9H3P7_487_RDCHEEVYAGSHQYPGR (UniProt Q9H3P7)”, the “probe-labelled cysteine peptide fold change” value came out at 0.146.
Turning to “ABCE1_P61221_227_FACAVVCIQK (UniProt P61221)”, the “probe-labelled cysteine peptide fold change” value was -0.301.
Regarding “ABCF2_Q9UG63_388_TLSFYFPPCGK (UniProt Q9UG63)”, the “probe-labelled cysteine peptide fold change” value was found to be 0.02.
Regarding “ACIN1_Q9UKV3_1052_SHCFVTYSTVEEAVATR (UniProt Q9UKV3)”, the “probe-labelled cysteine peptide fold change” value is -0.0442.
Still for that read-out and setting: the result for “ACACA_Q13085_1769_RVSALNSVHCEHVEDEGESR (UniProt Q13085)” reads 0.292.
The same measure, in the same setting: the result for “AARS_P49588_947_NVGCLQEALQLATSFAQLR (UniProt P49588)” reads 0.0047; that for “AARS_P49588_533_TCFYAEQGGQIYDEGYLVK (UniProt P49588)”, -0.0583.
On to “ACACA_Q13085_378_DCSVQR (UniProt Q13085)”, for which the “probe-labelled cysteine peptide fold change” value worked out at 0.0963.
In the case of “ABR_Q12979_756_ENCMMHLLR (UniProt Q12979)”, the “probe-labelled cysteine peptide fold change” value was -0.00366.
“AARS_P49588_525_MFVEEVSTGQECGVVLDK (UniProt P49588)”: the “probe-labelled cysteine peptide fold change” value was -0.0692.
Take “ACBD3_Q9H3P7_129_QVLMGPYNPDTCPEVGFFDVLGNDR (UniProt Q9H3P7)”: the “probe-labelled cysteine peptide fold change” value is -0.0188.
Consider “ACAD9_Q9H845_507_TVDLGLTGNHGVVHPSLADSANKFEENTYCFGR (UniProt Q9H845)”, for which the “probe-labelled cysteine peptide fold change” value came to 0.145.
Take “ABHD10_Q9NUJ1_100_ALAIEEFCK (UniProt Q9NUJ1)”: the “probe-labelled cysteine peptide fold change” value came to 0.101.
Same read-out and setting: the result for “ABCE1_P61221_201_TQAIVCQQLDLTHLK (UniProt P61221)” reads -0.0454; that for “ACAA2_P42765_116+128_EAEVVLCGGTESMSQAPYCVR (UniProt P42765)”, -0.275.
The same measure, in the same setting: in the case of “ACBD6_Q9BR61_80_VGNCNTPKPSFFDFEGK (UniProt Q9BR61)” it was -0.201.
